Measurements: PubChem BioAssay AID2551 (National Center for Advancing Translational Sciences (NCATS), 2010)
About 17,000 (5.5%) of roughly 310,000 compounds were called active. The shares of active, inactive and inconclusive entries below differ from those in the screen. Calls follow the shape of the dose curve; as a rule, active = well fitted inhibition curve with a large enough effect; inconclusive = small, poorly fitted or top-dose-only effect, or effect the other way; inactive = no such curve, though single readings can be large or run the other way. Where the call is inconclusive, the potency comes from a doubtful curve fit.

By UniProt entry, the sequences of proteins in these tests, tags left out. Where a name states a change or a piece, a line headed by the entry shows the natural chain unless it says otherwise.
UniProt P51450: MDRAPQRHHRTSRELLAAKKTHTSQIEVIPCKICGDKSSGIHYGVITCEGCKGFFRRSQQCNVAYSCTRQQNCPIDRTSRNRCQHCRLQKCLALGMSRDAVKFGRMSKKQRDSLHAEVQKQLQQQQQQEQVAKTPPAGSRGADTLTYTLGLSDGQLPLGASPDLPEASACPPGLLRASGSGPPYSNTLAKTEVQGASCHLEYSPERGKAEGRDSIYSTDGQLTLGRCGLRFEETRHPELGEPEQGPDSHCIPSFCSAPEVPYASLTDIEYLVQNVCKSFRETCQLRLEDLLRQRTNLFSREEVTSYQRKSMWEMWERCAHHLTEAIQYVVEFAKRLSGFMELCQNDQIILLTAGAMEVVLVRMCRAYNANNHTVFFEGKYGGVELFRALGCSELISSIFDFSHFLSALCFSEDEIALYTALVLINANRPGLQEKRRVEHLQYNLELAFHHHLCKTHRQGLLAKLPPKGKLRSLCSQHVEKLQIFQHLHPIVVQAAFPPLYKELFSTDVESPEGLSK

What follows are compounds tested against Nuclear receptor ROR-gamma (Mus musculus) (UniProt P51450) (assay: qHTS for inhibitors of ROR gamma transcriptional activity). Conditions: Drosophila S2 Gal4-RORgamma UAS-luciferase reporter, 20 h; activity change, negative = inhibition: at 53.6 µM (top of the series).
Summary of the method: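 Read-out: Photinus luciferase luminescence; inhibitors lower reporter signal. Insect Schneider cells with Gal4-ROR gamma fusion under metallothionein promoter, UAS reporter; 700 uM final copper sulfate induction, 20 hr, ambient temperature.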
% is scaled to controls: 0 for no effect and ±100 for the full control effect; potency is read from the fitted curve at half-maximal effect.
Also: nearly all actives have a fitted effect of over 60% in size.

Row | SMILES | Potency | activity change, negative = inhibition
1 | COc1ccc(CCN2CC(C#N)=C3c4cc(OC)c(OC)cc4CCN3C2)cc1OC | inactive | 
2 | Cc1ccc2c(c1)C(=O)[C@]1(O)CCN(c3ccccc3)C1=N2 | inactive | 
3 | O=C(CCCN1C(=O)/C(=C/c2ccccc2Cl)SC1=S)N1CCCC1 | active: 8.91 µM | 
4 | CN1C(=O)C(/C(N)=N/NC(=O)c2ccccc2)C2CC1(C)Oc1ccccc12 (stereo not drawn) | inconclusive: 17.8 µM [inhibitor, single point] | 
5 | Cc1ccccc1-n1c(C)cc(/C=C2/C(=N)N3C(c4ccccc4)=CSC3=NC2=O)c1C | inactive | 
6 | COc1cc(CN2CCc3ccccc3C2)ccc1O | active: 5.62 µM | 
7 | COc1cc(C(=O)NC(=S)N(CCc2ccccc2)CCc2ccccc2)cc(OC)c1OC | active: 0.398 µM | 
8 | Cc1ccc(CNC(=O)c2ccc(C#CC(C)(C)O)s2)cc1 | inconclusive: 6.31 µM [activator, single point] | 
9 | CCc1nnc(NC(=O)CSc2ccc(-c3nc4ccccc4[nH]3)cn2)s1 | inconclusive: 2.51 µM [activator, full curve] | 
10 | CN1CCN(C(=O)c2ccc(-c3cccs3)s2)CC1 | inconclusive: 28.2 µM [inhibitor, single point] | 
11 | O=[N+]([O-])c1ccccc1OCc1nc(-c2cccs2)no1 | inconclusive: 1.58 µM [activator, partial curve] | 
12 | C/C(=N\NC(=O)C(O)(c1ccccc1)c1ccccc1)c1ccc(NC(=O)CCCC(=O)O)cc1 | inactive | 
13 | Cc1ccc(S(=O)(=O)NNC(=S)NCC2CCCO2)cc1 (stereo not drawn) | inconclusive: 35.5 µM [inhibitor, single point] | 
14 | COC(=O)C1=C(C)N(Cc2ccccc2)C(=NCc2ccco2)N[C@H]1c1ccc(Br)cc1 | inconclusive: 35.5 µM [inhibitor, single point] | 
15 | CCOC(=O)N1CCC(N2Cc3cccc(C(=O)NCC4CCN(CC(C)C)C4)c3C2=O)CC1 (stereo not drawn) | inconclusive: 0.708 µM [activator, single point] | 
16 | O=C(/C=C/Nc1ccccc1)c1ccc(Cl)cc1Cl | inconclusive: 8.91 µM [inhibitor, single point] | 
17 | Cc1ccccc1NS(=O)(=O)c1nnc(NC(=O)CC(C)C)s1 | inactive | 
18 | COc1ccccc1NC(=O)Cn1c(=O)oc2ccccc21 | inactive | 
19 | COc1ccccc1C(=O)Nc1nnc(SCC(=O)NCC2CCCO2)s1 (stereo not drawn) | inconclusive: 35.5 µM [inhibitor, single point] | 
20 | CC1CCN(C(=O)CSc2nc3ccccc3[nH]2)CC1 | inconclusive: 0.112 µM [activator, full curve, poor fit] | 
21 | COCCNC(=O)c1c[nH]c2ccc(S(=O)(=O)N(C)c3ccc(C)c(C)c3)cc2c1=O | inactive | 
22 | O=C(NC(=S)Nc1nc(-c2ccc(Cl)cc2)cs1)c1cccs1 | active: 0.794 µM | 
23 | CCOC(=O)N1CCc2c(sc3c2c(=O)n(Cc2ccccc2)c(=O)n3Cc2cccc(C)c2)C1 | inconclusive: 35.5 µM [activator, single point] | 
24 | O=C(Nc1cccc(S(=O)(=O)N2CCCCC2)c1)c1ccc2c(c1)OCO2 | inconclusive: 11.2 µM [activator, partial curve] | 
25 | COc1ccc(-c2nnc(SCC(=O)Oc3ccc(C)cc3)o2)cc1 | inconclusive: 0.708 µM [inhibitor, full curve, poor fit] | 

Look-ups from the results shown.
For Potency, O=C(CCCN1C(=O)/C(=C/c2ccccc2Cl)SC1=S)N1CCCC1 has active: 8.91 µM
For Potency, C/C(=N\NC(=O)C(O)(c1ccccc1)c1ccccc1)c1ccc(NC(=O)CCCC(=O)O)cc1 has inactive
For Potency, COc1cc(CN2CCc3ccccc3C2)ccc1O has active: 5.62 µM
For Potency, Cc1ccccc1NS(=O)(=O)c1nnc(NC(=O)CC(C)C)s1 has inactive

Continued.

Row | SMILES | Potency | activity change, negative = inhibition
26 | CCOC(=O)N1CCN(C(=O)C2CCN(c3ncnc4c3sc3cccc(F)c34)CC2)CC1 | inactive | 
27 | CC1=C(C(N)=O)C(c2ccc(F)cc2)n2nc(CCCO)nc2N1 (stereo not drawn) | inactive | 
28 | Cc1ccc(NC(=O)COC(=O)/C=C/c2ccc(Br)o2)cc1S(=O)(=O)N(C)C | inconclusive: 0.447 µM [inhibitor, single point] | 
29 | C/C(=N\NC(=O)c1nn(C)c(C)c1Br)c1ccc(NC(=O)c2ccoc2C)cc1 | inconclusive: 28.2 µM [inhibitor, single point] | 
30 | CSC1=NC(C)(C)C=C(/C=C/c2ccc(Cl)cc2)N1 | inconclusive: 20 µM [inhibitor, single point] | 
31 | COC(=O)C(Cc1ccccc1)NC(=O)COc1ccc(C(C)(C)C)cc1 (stereo not drawn) | inconclusive: 12.6 µM [activator, partial curve] | 
32 | O=C(Nc1nccs1)c1cc2sccc2n1Cc1ccc(Cl)cc1 | inactive | 
33 | CSc1cc(/C=N/O)c(SC)s1 | inconclusive: 11.2 µM [inhibitor, single point] | 
34 | CC(NC(=S)Nc1ccccc1OC(F)F)C(C)(C)C (stereo not drawn) | inconclusive: 3.16 µM [inhibitor, single point] | 
35 | CCO[C@@H]1OC(C(=O)N2CCN(Cc3ccc4c(c3)OCO4)CC2)=C[C@H](c2cn(C(C)=O)c3ccccc23)[C@H]1CCCO | inactive | 
36 | COC(=O)c1ccc(NC(=O)Nc2ccc(F)c(Cl)c2)cc1 | inactive | 
37 | Cc1ccc(Cn2c(=O)n(C)c(=O)c3sccc32)cc1 | inconclusive: 31.6 µM [activator, single point] | 
38 | CCC(=O)N1CCN(c2ccc(Cl)cc2NC(=O)c2cccc([N+](=O)[O-])c2)CC1 | inactive | 
39 | FC(F)(F)c1cccc(Cc2noc(CN3CCCC3)n2)c1 | inconclusive: 20 µM [activator, partial curve] | 
40 | O=C(c1ccc2nc(N3CCCCC3)sc2c1)N1CCN(Cc2ccc3c(c2)OCO3)CC1 | inconclusive: 35.5 µM [activator, single point] | 
41 | CCOC(=O)c1ccc(NC(=O)c2ccc(CN3CCOCC3)cc2)cc1 | inconclusive: 4.47 µM [activator, full curve] | 
42 | Cn1cccc1/C=N\NC(=O)Cc1ccc(Br)c2ccccc12 | inconclusive: 31.6 µM [inhibitor, single point] | 
43 | COc1cc2c(cc1NC(=O)COC(=O)C(CCSC)NC(=O)c1ccccc1Cl)oc1ccccc12 (stereo not drawn) | active: 10 µM | 
44 | COc1ccc(-c2cn(-c3ccccc3)c(=S)[nH]2)cc1OC | active: 5.62 µM | 
45 | c1ccc(Nc2cccc(Nc3ccccc3)n2)cc1 | inconclusive: 7.94 µM [activator, partial curve] | 
46 | CCc1nnc(NC2=NCCC2)s1 | inactive | 
47 | Oc1ccc(/C=N/Nc2ncc(Br)cn2)c(O)c1 | inconclusive: 12.6 µM [inhibitor, single point] | 
48 | O=C(Nc1cccc(S(=O)(=O)Nc2ccc(Cl)cc2)c1)c1ccc2c(c1)OCCO2 | inconclusive: 0.794 µM [activator, single point] | 
49 | CC(C)(C)NC[C@H](O)CSc1nc(-c2ccc(C(N)=O)s2)cs1 | inactive | 
50 | O=C(NNC(=O)c1ccccc1C(=O)O)c1ccc(-c2ccccc2)cc1 | active: 14.1 µM | 

Row | SMILES | Potency | activity change, negative = inhibition
51 | CC(C)(C)C(=O)NC(c1ccccc1)c1c(O)ccc2ccccc12 (stereo not drawn) | inconclusive: 35.5 µM [activator, single point] | 
52 | CCCCNC(=S)NNC(=O)c1cc(C)on1 | active: 10 µM | 
53 | O=C(O)CCSc1ccccn1 | inactive | 
54 | Cc1ccc(S(=O)(=O)NC2CCCc3ccccc32)cc1C (stereo not drawn) | inactive | 
55 | COc1cc(C)c(Cl)cc1S(=O)(=O)NCc1ccccn1 | inconclusive: 15.8 µM [inhibitor, single point] | 
56 | COc1ccc(C(C(=O)NC2CCCCC2)N(C(=O)CCl)c2ccc(OC)cc2)cc1 (stereo not drawn) | inconclusive: 8.91 µM [inhibitor, partial curve] | 
57 | CCN1C(=O)[C@H]2[C@H]3[C@H](O)[C@H](O)C/C(=N/O[C@@H](C)CN4CCCc5nc(C)c(C)cc54)[C@@H]3CC[C@@H]2C1=O |  | inactive: -9.35% [at 10 µM]
58 | O=C(c1ccc(=O)n(Cc2ccc(Cl)c(Cl)c2)c1)N1CCOCC1 | inconclusive: 35.5 µM [activator, single point] | 
59 | COc1ccc(C(=O)NC(=S)NCc2ccc(-c3nc4ccccc4o3)cc2)cc1OC | active: 1.26 µM | 
60 | N#Cc1nc(Cc2ccccc2)oc1N1CCN(c2cccc(Cl)c2)CC1 | inconclusive: 15.8 µM [activator, single point] | 
61 | Cc1ccc(C)c(-n2cc(CNCCCn3cccn3)c(-c3ccccc3)n2)c1 | active: 10 µM | 
62 | Cn1cc(-c2nc3cnc(N4CCNCC4)nc3n(C3CC3)c2=O)c2ccccc21 | inconclusive: 17.8 µM [inhibitor, single point] | 
63 | Fc1cc(F)cc(NC(=S)N2CCN(c3ncccn3)CC2)c1 | inconclusive: 11.2 µM [inhibitor, single point] | 
64 | CCOc1cc(/C=C2\C(=O)N(c3cccc(C(=O)O)c3)N=C2C(F)(F)F)ccc1OCC(=O)Nc1ccccc1OC | inactive | 
65 | COc1c(Cl)cnn(-c2ccc(Cl)c(Cl)c2)c1=O | inactive | 
66 | O=[N+]([O-])c1ccc(NNC(=S)Nc2ccccc2)cc1 | inconclusive: 35.5 µM [inhibitor, single point] | 
67 | COc1cc2nc(NC(=O)c3ccccc3)[nH]c(=O)c2cc1OC | inactive | 
68 | COc1ccccc1CNC(=S)Nc1ccc(F)cc1 | active: 7.94 µM | 
69 | CCC(c1nnc(SCC(=O)Nc2nnc(-c3ccccc3)o2)n1Cc1ccccc1)N(C)C (stereo not drawn) | active: 8.91 µM | 
70 | CCC(C)(C)NC(=O)C(c1ccc(OC)cc1)N(Cc1cccs1)C(=O)CCC(=O)Nc1cc(C)on1 (stereo not drawn) | inconclusive: 1.12 µM [activator, full curve, poor fit] | 
71 | CC1CN(C(=O)c2ccc(COc3ccc4ccccc4c3)o2)CC(C)O1 (stereo not drawn) | inconclusive: 14.1 µM [activator, partial curve] | 
72 | Cc1nc(N2CCOCC2)nc2c1CCCC2 | inconclusive: 15.8 µM [activator, single point] | 
73 | O=C(NCCOc1ccccc1)c1ccc2c(c1)OCO2 | active: 5.01 µM | 
